Each structure is given as a SMILES string. Counter-ions that a name gives are not always drawn. ± gives the standard deviation of the averaged measurements. The list shows a part of the results. This data set is noisy: repeats of one test often differ as much as different tests do.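 Cells were counted by imaging DAPI-stained nuclei, and cells lacking phalloidin-stained cytoplasm were excluded as dead. Each well's count was divided by the median count of the vehicle wells on the same plate, and values were averaged over two replicate plates.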

These results are taken from the supplement of paper PMC12462457.

The assay relates to OVCAR8. The assay can be described thus: cell count relative to DMSO vehicle (fold change); higher = more surviving senescent cells (less killing). As to conditions: senescence inducer: cisplatin 10 µM 48 h, then 6 d recovery (CP senescent), exposure time 24 h.

`Cn1nnc2c(C(N)=O)ncn2c1=O`: the cell count reads like this: (compound dose 1 µM) 1.062 ± 0.0021; (compound dose 5 µM) 1.03 ± 0.18.

Take `COc1ccc(-c2cc3nccn3c(Nc3ncccc3C(N)=O)n2)cc1OC` [BAY 61-3606 (dihydrochloride)]: the cell count was found to be 1.38 ± 0.072 (compound dose 1 µM) and 1.18 ± 0.082 (compound dose 5 µM).

For the compound `C=C1C(=O)O[C@H]2[C@H]1CC/C(C)=C/CC[C@@]1(C)O[C@@H]21` [Parthenolide], the cell count reads like this: (compound dose 1 µM) 0.779 ± 0.046; (compound dose 5 µM) 0.481 ± 0.13.

`COCCOc1cnc(Sc2cc(C)c(-c3csc(NC(=O)c4ccncc4)n3)c(C)c2)cn1` [T-1101 (tosylate)] returned a cell count (compound dose 1 µM) of 1.02 ± 0.19 and a cell count (compound dose 5 µM) of 1.09 ± 0.042.

As to `Cc1ccc(C(=O)Cn2c3c(sc2=N)CCCC3)cc1` [Pifithrin-α (hydrobromide)], the cell count (compound dose 1 µM) was 1.01 ± 0.14 and the cell count (compound dose 5 µM) worked out at 0.801 ± 0.2.

`CNC(=O)[C@H]1O[C@@H](n2cnc3c(NCc4ccc(I)cc4)ncnc32)[C@H](O)[C@@H]1O` [Piclidenoson]: the cell count runs as follows: (compound dose 1 µM) 0.779 ± 0.013; (compound dose 5 µM) 0.801 ± 0.17.

As for `O=C(CCl)NCc1cccc2c1C(=O)N(C1CCC(=O)NC1=O)C2=O` (stereo not given), the cell count was 1.09 ± 0.1 (compound dose 1 µM) and 1.13 ± 0.29 (compound dose 5 µM).

On to `O=C1Nc2ccccc2C1=O` [Isatin], for which the cell count runs as follows: (compound dose 1 µM) 1.08 ± 0.066; (compound dose 5 µM) 1.26 ± 0.15.

On to `COc1ccc(-c2cc(=O)c3c(OC)c(OC)c(OC)c(OC)c3o2)cc1`, for which the cell count reads like this: (compound dose 1 µM) 0.87 ± 0.019; (compound dose 5 µM) 0.576 ± 0.33.

Regarding `CO[C@H]1C[C@@H]2CC[C@@H](C)[C@@](O)(O2)C(=O)C(=O)N2CCCC[C@H]2C(=O)O[C@H]([C@H](C)C[C@@H]2CC[C@@H](OC(=O)C(C)(CO)CO)[C@H](OC)C2)CC(=O)[C@H](C)/C=C(\C)[C@@H](O)[C@@H](OC)C(=O)[C@H](C)C[C@H](C)/C=C/C=C/C=C/1C` [Temsirolimus], the cell count was 0.927 ± 0.064 (compound dose 1 µM) and 0.763 ± 0.018 (compound dose 5 µM).

On to `COc1ccc(-c2cc(=O)c3c(OC)c(OC)c(OC)c(OC)c3o2)cc1OC`, for which the cell count runs as follows: (compound dose 1 µM) 1.17 ± 0.059; (compound dose 5 µM) 0.803 ± 0.47.

As to `Cc1nnc(NC(=O)c2nc(S(=O)(=O)Cc3ccc(F)cc3)ncc2Cl)s1`, the cell count reads like this: (compound dose 1 µM) 0.892 ± 0.083; (compound dose 5 µM) 0.686 ± 0.13.

On to `C[C@H](Nc1ccc2c(c1)OCCn1cc(N3C(=O)OC[C@H]3C(F)F)nc1-2)C(N)=O`, for which the cell count amounted to 1.09 ± 0.18 (compound dose 1 µM) and 1.23 ± 0.076 (compound dose 5 µM).

In the case of `CC1(C)C=C(CN2C/C(=C\c3ccc(F)cc3)C(=O)/C(=C/c3ccc(F)cc3)C2)C(C)(C)N1O`, the cell count was found to be 1.22 ± 0.068 (compound dose 1 µM) and 1.25 ± 0.24 (compound dose 5 µM).

With `COc1ccc(-c2cc(Nc3ccnc(N4CCOCC4)n3)on2)cc1`, the cell count was determined as 1.18 ± 0.04 (compound dose 1 µM) and 0.751 ± 0.042 (compound dose 5 µM).

For `COc1ccc(/C=C/c2cc(O)cc(O[C@@H]3O[C@H](CO)[C@@H](O)[C@H](O)[C@H]3O)c2)cc1O` [Rhapontin], the cell count came to 1.03 ± 0.052 (compound dose 1 µM) and 0.915 ± 0.045 (compound dose 5 µM).

Regarding `Cc1c2c(nn1C)CSCc1cc(n(C)n1)CSc1cc(c3ccccc3c1)OCCCc1c(C(=O)O)n(C)c3c-2c(Cl)ccc13`, the cell count by setting is: (compound dose 1 µM) 0.767 ± 0.096; (compound dose 5 µM) 0.62 ± 0.073.

On to `COc1ccc(-c2ccc3cc(C(=O)O)ccc3c2)cc1C12CC3CC(CC(C3)C1)C2`, for which the cell count by setting is: (compound dose 1 µM) 0.825 ± 0.11; (compound dose 5 µM) 0.608 ± 0.18.

As to `C=CCNC1=C2C[C@@H](C)C[C@H](OC)[C@H](O)[C@@H](C)/C=C(\C)[C@H](OC(N)=O)[C@@H](OC)/C=C\C=C(/C)C(=O)NC(=CC1=O)C2=O` [Tanespimycin], the cell count by setting is: (compound dose 1 µM) 0.875 ± 0.09; (compound dose 5 µM) 0.371 ± 0.014.

`CNc1nc(C)c(-c2nc(Nc3cccc(S(N)(=O)=O)c3)ncc2F)s1`: the cell count is, setting by setting: (compound dose 1 µM) 0.892 ± 0.19; (compound dose 5 µM) 0.742 ± 0.14.

Compound `CN1C(=O)NC(Cc2c[nH]c3c(Cl)cccc23)C1=O` (racemic) [Necrostatin 2 (racemate)] returned a cell count (compound dose 1 µM) of 1.05 ± 0.064 and a cell count (compound dose 5 µM) of 0.856 ± 0.32.

In turn, `Cc1ccc(C(=O)Nc2sc(Nc3ccccc3)nc2C(N)=O)cc1` gave a cell count (compound dose 1 µM) of 1.08 ± 0.11 and a cell count (compound dose 5 µM) of 1.2 ± 0.068.

Take `O=C(/C=C/c1ccc(O)c(O)c1)O[C@H](Cc1ccc(O)c(O)c1)C(=O)O` [Rosmarinic acid]: the cell count is, setting by setting: (compound dose 1 µM) 1.09 ± 0.22; (compound dose 5 µM) 0.781 ± 0.24.

Regarding `C=C[C@](C)(O)CC[C@@H]1[C@@]2(C)CCCC(C)(C)[C@@H]2CC[C@@]1(C)O` [Sclareol], the cell count came out at 1.29 ± 0.059 (compound dose 1 µM) and 0.99 ± 0.14 (compound dose 5 µM).

For `O=C(O)CC(C(=O)O)n1c(O)c(C2=c3cc(Br)ccc3=NC2=O)sc1=S` (stereo not given), the cell count reads like this: (compound dose 1 µM) 0.8 ± 0.17; (compound dose 5 µM) 0.797 ± 0.021.

`COc1cc(CNC(=O)CCCC/C=C/C(C)C)ccc1O`: the cell count is, setting by setting: (compound dose 1 µM) 0.928 ± 0.071; (compound dose 5 µM) 0.794 ± 0.024.

As to `C[C@]12CC[C@@H]3c4ccc(O)cc4C[C@@H](CCCCCCCCC[S+]([O-])CCCC(F)(F)C(F)(F)F)[C@H]3[C@@H]1CC[C@@H]2O` (stereo not given in full) [Fulvestrant], the cell count turned out to be 0.811 ± 0.083 (compound dose 1 µM) and 0.844 ± 0.12 (compound dose 5 µM).

Consider `COc1ccc(-c2cc(=O)c3c(O)c(OC)c(OC)cc3o2)cc1` [Salvigenin], for which the cell count (compound dose 1 µM) was determined as 1.18 ± 0.012 and the cell count (compound dose 5 µM) worked out at 0.95 ± 0.16.

With `NC1(Cc2ccc(Cl)cc2)CCN(c2ncnc3[nH]ccc23)CC1`, the cell count turned out to be 1.21 ± 0.18 (compound dose 1 µM) and 0.911 ± 0.15 (compound dose 5 µM).

With `CC(C)c1c2cc(-c3ccnc(NC4CCC(NC5CCOCC5)CC4)n3)ccc2nn1C` (stereo not given), the cell count was 0.978 ± 0.011 (compound dose 1 µM) and 0.9395 ± 0.0092 (compound dose 5 µM).

Take `CCOC(=O)C1=C(N)Oc2ccc(Br)cc2C1C(C#N)C(=O)OCC` (stereo not given): the cell count turned out to be 0.818 ± 0.11 (compound dose 1 µM) and 0.954 ± 0.16 (compound dose 5 µM).

With `CC(=O)c1c(Nc2ccc(Cl)cc2)[nH]c2c(Br)ccc(Cl)c2c1=O`, the cell count by setting is: (compound dose 1 µM) 1.33 ± 0.03; (compound dose 5 µM) 1.33 ± 0.19.

For `CCn1c2ccccc2c2cc(CNC)ccc21`, the cell count runs as follows: (compound dose 1 µM) 0.859 ± 0.086; (compound dose 5 µM) 0.762 ± 0.32.

Turning to `CCCOC(=O)c1ccc(O)cc1` [Propylparaben], the cell count is, setting by setting: (compound dose 1 µM) 0.688 ± 0.044; (compound dose 5 µM) 0.621 ± 0.29.

In the case of `O=C(NCCN1CCOCC1)Nc1nc2ccc(Sc3nnc4ccc(-c5ccc(F)cc5)nn34)cc2s1`, the cell count stood at 0.952 ± 0.15 (compound dose 1 µM) and 0.947 ± 0.13 (compound dose 5 µM).
